PubChem BioAssay AID686937 | Drosophila RNAi Screening Center – 2013

- Screen: 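Genes in the fly needed for secretion of protein constitutively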 (primary screen)
- Cell system: Drosophila S2 cells expressing secreted horseradish peroxidase
- Knock-down reagent: long dsRNA against Drosophila genes
- Duration: about 5.5 days (5 days dsRNA, then 12 h reporter induction)
- Conditions: reporter expression induced after 5 days of dsRNA, read 12 h later; inducer not stated
- Measured: 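Chemiluminescent measurement of peroxidase in the medium 12 h after reporter induction, following 5 days of dsRNA, given as a z-score per plate; higher means more secretion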
- Scale: z-score: higher = more reporter secreted into medium
The screen tested about 23,000 reagents; this is an unselected part of those with a known target gene and a result. 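Reduced-secretion tags in replicate 1 do not always agree with the z-scores; no criterion for assigning the tags was given.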 A plus sign joins genes that one reagent is predicted to hit. Further read-outs or replicates are left out here. Not stated in the record: the amount of reagent.

For CG5131 [DRSC02817], what was measured?
z-score, replicate 1: 0.23

For Klp10A [DRSC19601], how do the results read?
z-score, replicate 1: 0.08

Which result is listed for CG14797 + CG32809 [DRSC18562]?
z-score, replicate 1: 0.24

What is on record for Apc [DRSC14114]?
z-score, replicate 1: 0.29

Which result is listed for levy [DRSC04289]?
z-score, replicate 1: -0.13

How did the screen score Ndf [DRSC02775]?
z-score, replicate 1: 0.37

For CG43373 [DRSC09869], what does the deposit list?
z-score, replicate 1: 0.38

For CG43373 [DRSC09885], how do the results read?
z-score, replicate 1: -0.04

Which result is listed for CG1598 [DRSC06598]?
z-score, replicate 1: 0.31

What is on record for CG5961 [DRSC15927]?
z-score, replicate 1: 0.43

What is on record for CG13876 [DRSC08346]?
z-score, replicate 1: 0.21

For CG14297 [DRSC14776], how do the results read?
z-score, replicate 1: 0.13

With inaC [DRSC07632], what was measured?
z-score, replicate 1: 0.4

What is on record for CG8708 [DRSC07240]?
z-score, replicate 1: 0.47

What is on record for Lkr [DRSC09754]?
z-score, replicate 1: 0.35

What did the screen give for CG33177 [DRSC19949]?
z-score, replicate 1: 0.27

For TER94 [DRSC07560], what does the deposit list?
z-score, replicate 1: -4.68; phenotype, replicate 1: reduced secretion

Taken from above:
CG33177 [DRSC19949], z-score, replicate 1 = 0.27
CG14797 + CG32809 [DRSC18562], z-score, replicate 1: 0.24
Under “z-score, replicate 1”, Lkr [DRSC09754] is entered as 0.35

The listing continues.
With CG10910 [DRSC06007], what was measured?
z-score, replicate 1: 0.37

Which result is listed for Ir48b [DRSC06320]?
z-score, replicate 1: 0.58

For CG13551 [DRSC21847], what was measured?
z-score, replicate 1: 0.33

For CG8142 [DRSC20086], how do the results read?
z-score, replicate 1: 0.13

What did the screen give for CG42402 [DRSC21116]?
z-score, replicate 1: 0.21

For CG10914 [DRSC06010], how do the results read?
z-score, replicate 1: 0.39

What did the screen give for CG12679 [DRSC20493]?
z-score, replicate 1: 0.31

With aly [DRSC08707], how do the results read?
z-score, replicate 1: 0.21

For aly [DRSC21784], how do the results read?
z-score, replicate 1: 0.23

With sov [DRSC17930], what was measured?
z-score, replicate 1: 0.36
